Screen size: about 340,000 compounds; about 170 (0.05%) were called active. Inconclusive results, whose numbers are uncertain, are shown with a selection of clear calls. Calls follow the shape of the dose curve; as a rule, active = well fitted inhibition curve with a large enough effect in the signal ratio, with a control signal flat (not every such curve was filed as active); inconclusive = small, poorly fitted or top-dose-only effect, or effect the other way, or a change in a side signal; inactive = flat fitted curve, though single readings scatter; the % refers to the signal ratio. Potencies beside an inconclusive call are fits to weak or partial responses and may not hold up.
Assay: qHTS Assay to Find Inhibitors of Chronic Active B-Cell Receptor Signaling;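 as to activity change, negative = inhibition: plate controls were basal doxycycline-induced cells for no effect and cells given 10 µM MG132 for full effect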
Conditions: ABC-DLBCL IkBa-CBG/CBR reporter, luminescence ratio (green luciferase fused to IkBa over red control in TMD8 lymphoma cells), 4 h; activity change, negative = inhibition: at 46.1 µM (top of the series)
Excerpt: NIH Molecular Libraries Probe Production Network [MLPCN] NIH Chemical Genomics Center [NCGC] MLPCN Grant: 1 R03 DA031086-01A1 PI Name: Dr. R. Eric Davis NCGC Assay Overview: Diffuse large B-cell lymphoma (DLBCL) is the most common category of non-Hodgkin lymphoma, with ~20,000 new cases per year in the United States. DLBCL should be regarded as a collection of different neoplasms. Microarray gene expression analysis has defined two principal types of DLBCL, named for their similarity to normal B cell stages or activation states: a germinal center B-cell (GCB) type, and an activated B-cell (ABC) type. In ABC-DLBCL, a constitutive high-level activity of the NF-kappaB family of transcription factors has been observed (1) and NF-kappaB target genes are more highly expressed in ABC primary tumors than in GCB tumors. Functional studies have shown a constitutive high-level activity of the IkappaB (inhibitor of kappa-B) kinase (IKK) complex. […] Further analysis of DLBCL primary tumors for NF-kappaB target gene expression imply that although CARD11 is required for constitutive IKK activity in all ABC-DLBCL lines, mutations in CARD11 may be the root cause of IKK activation only in lines or tumors with such mutations. In other words, CARD11 mutations may explain NF-kappaB activation in only 10% of ABC-DLBCL cases. […] This process has been termed 'chronic active BCR signaling' (CABS). The goal of this screen is to find small-molecule inhibitors of the CABS pathway found in ABC-DLBCL lines using a cell-based assay that measures IkappaBalpa stability, which has already been extensively validated in the OCI-Ly3 line (PubChem AID:445; REF: 4). […] The assay uses green (CBG68) and red (CBR) emitting beetle luciferases [Chroma-GloTM developed by Promega Corp.] where the green luciferase is fused to IkappaBalpha and the red luciferase is present in its native state. Both luciferase genes are stably present in the TMD8 human ABC DLBCL cell line, but their expression is under the control of tetracycline-inducible promoters. Following the addition of doxycycline to induce expression of the luciferases, the green luminescence in control cultures rises only slowly because the CBG fusion partner IkappaBalpha is targeted by IKK activity for rapid degradation. In contrast, green luminescence rises rapidly in the presence of proteasome inhibitors or IKK inhibitors. The rise in red luminescence of CBR is not affected by proteasome or IKK inhibitors, and serves as normalization for cell number and nonspecific effects. Compounds were screened as a concentration-titration series that ranged from 46 uM to 3 nM.
NCGC Assay Protocol Summary: Cells were seeded in 1536-well plates at 5000 cells/4uL in IMDM medium containing 0.5% FBS, w/o phenol red, 1% penicillin/streptomycin. Then, 23 nL of compounds or DMSO were delivered to each well using a pin tool. One uL 20ng/ml doxycycline was then dispensed into white solid 1536-well plates and the plates were incubated at 37C/5% C02 in a cell incubator for 4 hrs. Then 4 uL luminescent substrate mix (in-house prepared: 150 mM Tris-Cl, pH 7.6, 3 mM MgCl2, 1% Triton X-100, 5 mM DTT, 0.2 mM CoA, 0.15 mM ATP, 5 mM D-luciferin, final concentrations) was added to each well. The plate was incubated at r.t. for 10-15 min. The plates were measured on a ViewLux plate reader for green luminescence (540/20 nm filter) and red luminescence (618/8 nm filter). The green and red luminescent signals were corrected for red and green luminescence filter overlap using previously determined filter calibration constants (determined using the procedure outlined in the Promega Technical Manual; REF 4). The %Activity was determined from the ratio of corrected green/red luminescent values. MG132 were used as control. […] Red luminescent %Activity was normalized to the difference between red luminesence in basal cells (0%Activity) and zero luminescence (-100% Activity). […]
Potency is read from the fitted curve at half-maximal effect.

Structure (SMILES)	activity change, negative = inhibition	Potency
COP(=O)(OC)C(NC(=O)C(C)(C)C)=C(Cl)Cl	inconclusive: 9.33%	–
O=C(N/N=C/c1c(O)n(-c2cccc3ccccc23)c(=O)[nH]c1=O)c1ccncc1	inconclusive: -19.5%	–
CCOc1ccc(-c2c(C)n(-c3ccc(OCC)cc3)c3[n+]2CCCCC3)cc1	inconclusive: -21.5%	–
CCC(=NCCC(c1ccccc1)c1ccccc1)c1c(O)[nH]c(=O)[nH]c1=O	–	inconclusive: 25.9 µM [falling, single point]
COC(=O)C1=C(c2ccc(OC)c(OC)c2)C[C@@H]2CC[C@H]1N2C(=O)N1CCCCC1	inactive	–
O=C1NC(=O)N(c2cccc(Br)c2)C(=O)/C1=C/c1ccsc1	inactive	–
COc1ccc(-n2cnc3cc(C(=O)N4CCC5(CC4)OCCO5)ccc32)cc1	–	inconclusive: 35.5 µM [falling, single point]
CCCCC/C=C\C/C=C\C/C=C\C/C=C\CCCC(=O)O	–	inconclusive: 4.11 µM [falling, full curve]
O=C(N/N=C/c1cc(Cl)ccc1O)c1cccnc1	–	inconclusive: 28.2 µM [falling, single point]
O=C1NC(=O)N(Cc2ccc(F)cc2)C(=O)/C1=C\C=C\c1ccco1	–	inconclusive: 35.5 µM [falling, single point]
CCSc1cc(C2C(C#N)=C(N)Oc3n[nH]c(C)c32)c(C)o1 (stereo unspecified)	–	inconclusive: 25.9 µM [falling, partial curve, poor fit]
O=C(CSc1ccccc1)N1CCC2(CC1)OCCO2	inconclusive: 6.31%	–
Cc1cccc(NC(=O)C2CCCN2C(=O)Oc2ccccc2)c1C (stereo unspecified)	inconclusive: 13.9%	–
O=C1C(Cc2cnc[nH]2)NC(=S)N1c1ccccc1 (stereo unspecified)	inconclusive: 13.2%	–
COc1ccc(C2NCc3ccc4c(c3-n3cccc32)OCO4)cc1OC (stereo unspecified)	inconclusive: -3.53%	–
O=C(c1ccc(N2CCCCC2)c([N+](=O)[O-])c1)N1CCC2(CC1)OCCO2	–	inconclusive: 8.91 µM [rising, partial curve, poor fit]
CN1CCc2nc(N)c(C#N)c(-c3ccccc3)c2C1	inconclusive: 15.7%	–
C[C@]12CCC3C(CC[C@H]4C[C@@H](O)CC[C@]34C)C1C[C@H](Br)[C@@H]2O (stereo partly specified)	inconclusive: -6.97%	–
O=C(NCCN1CCCCC1)c1ccc(Cl)nc1Cl	inconclusive: 12.1%	–
Cc1ccc(-n2c(/C=C/c3ccc(Br)s3)nc3ccccc3c2=O)cc1C	inactive	–
CC(NC1CCCCC1)C(O)C12CC3CC(CC(C3)C1)C2 (stereo unspecified)	–	inconclusive: 23.1 µM [falling, single point]
CCCCc1ccc(NC2=NCCCS2)cc1	inactive	–
O=C1COc2ccc(C(=O)COC(=O)Cc3ccccc3)cc2N1	inconclusive: 8.63%	–
CCCCOP(=O)(OCCCC)C(O)c1ccc(N(C)C)cc1 (stereo unspecified)	inconclusive: 3.86%	–
CCOP(=O)(OCC)c1ccc2c(c1)C(=O)c1ccccc1CC2	inconclusive: -0.945%	–
CC(=O)Nc1cc([As](=O)(O)O)ccc1O	inactive	–
Cc1cc2c(C(C)C)c(O)c(O)c(C=O)c2c(O)c1-c1c(C)cc2c(C(C)C)c(O)c(O)c(C=O)c2c1O	inconclusive: 0.287%	inconclusive: 15.8 µM [rising, single point]

Structure (SMILES)	activity change, negative = inhibition	Potency
COc1ccc(C(=O)Nc2ccc(N3CCN(C(=O)c4cccs4)CC3)cc2)cc1Br	inconclusive: -3.69%	–
Brc1ccc2c(c1)C(OC1CN3CCC1CC3)c1ccccc1CS2 (stereo unspecified)	inconclusive: -16.4%	–
Cc1cc(Cl)ccc1OC(C)C(=O)O (stereo unspecified)	inconclusive: 12.1%	–
CCCCCCn1c(O)c(C=Nc2ccccc2N2CCOCC2)c(=O)[nH]c1=S	inconclusive: 13%	–
CCCCOc1ccc(CC2C(=O)N(C)C(=O)N(C)C2=O)cc1	inconclusive: -9.45%	–
COC(=O)[C@]1(C)C[C@H]1[C@H](NP(=O)(c1ccccc1)c1ccccc1)c1ccccc1	inconclusive: -3.13%	–
CN1C2c3ccccc3C3C4c5ccccc5C(C31)C(C2[N+](=O)[O-])N4C (stereo unspecified)	inactive	–
CCCn1c(C(=O)c2ccc(OC)cc2)nc2ccccc21	inconclusive: 12.2%	–
CCN1CCN(Cc2cc(C(C)(C)C)c(O)c(C(C)(C)C)c2)CC1	inconclusive: 1.41%	–
CCN1CCN(C(=O)COc2cc(=O)n(CC)c3ccccc23)CC1	–	inconclusive: 6.51 µM [falling, partial curve, poor fit]
CCCCNC(=O)OC(C)CNC(=O)Oc1cccc(C)c1 (stereo unspecified)	inconclusive: 2.88%	–
NC(=O)c1ccsc1NC(=O)COC(=O)Cc1ccccc1	inconclusive: -1.3%	–
CC(C)c1ccc(N2C(=O)NC(=O)/C(=C/C=C/c3ccco3)C2=O)cc1	–	inconclusive: 29.1 µM [falling, single point]
CC(CN(C)C1CCN(C)CC1)c1ccccc1 (stereo unspecified)	inactive	–
COc1ccc(C(C)=O)cc1CC(C(=O)c1ccccc1)N(C)C (stereo unspecified)	inconclusive: 10.1%	–
COC(=O)CC1=C(C(=O)OC)C2(C(=O)Nc3c(C)cccc32)C(C#N)=C(N)O1 (stereo unspecified)	inactive	–
COc1ccc(NC2=NC(C)(C)CS2)cc1	inactive	–
Nc1ccc(C2(c3ccc(N)cc3)CN3CCC2CC3)cc1	inactive	–
CCCCCCCCn1sccc1=O	inconclusive: 24.9% [cytotoxic]	–
CCOC(=O)C1=C(N)OC2=C(C(=O)CCC2)[C@]12C(=O)N(CC(N)=O)c1ccccc12	inconclusive: -1.17%	–
C=C1C(O)[C@@H]2O[C@]3(CC[C@H](/C=C/C(C)[C@@H]4CC(C)=CC5(O[C@H](C[C@@](C)(O)C(=O)O)CCC5O)O4)O3)CC[C@H]2O[C@@H]1C(O)CC(C)[C@H]1OC2(CCCCO2)CCC1C (stereo partly specified)	inconclusive: 15.3%	–
O=P(Oc1ccccc1)(Oc1ccccc1)N1CCN(c2ccc(F)cc2)CC1	inconclusive: -20.4%	–
COC(=O)C1=C(N)Oc2c(c(=O)oc3ccccc23)[C@]12C(=O)N(C)c1ccccc12	inconclusive: -24.3%	–
CC(=O)NCCc1c[nH]c2ccccc12	inactive	–
O=C1NC(=O)C(=Cc2ccc(SC3CCCCC3)o2)C(=O)N1	inactive	–
COC(=O)C1=C(c2ccc(Cl)c(C(F)(F)F)c2)C[C@@H]2CC[C@H]1N2C(=O)NCCOc1ccc(OC)cc1	–	inconclusive: 32.6 µM [falling, partial curve, poor fit]
C#CCOc1cc(C2C3=C(COC3=O)Nc3cc4c(cc32)OCO4)ccc1OC (stereo unspecified)	–	inconclusive: 14.1 µM [falling, partial curve]

Compounds from the list above that have bromine (5):
Structure (SMILES)	activity change, negative = inhibition	Potency
O=C1NC(=O)N(c2cccc(Br)c2)C(=O)/C1=C/c1ccsc1	inactive	–
C[C@]12CCC3C(CC[C@H]4C[C@@H](O)CC[C@]34C)C1C[C@H](Br)[C@@H]2O (stereo partly specified)	inconclusive: -6.97%	–
Cc1ccc(-n2c(/C=C/c3ccc(Br)s3)nc3ccccc3c2=O)cc1C	inactive	–
COc1ccc(C(=O)Nc2ccc(N3CCN(C(=O)c4cccs4)CC3)cc2)cc1Br	inconclusive: -3.69%	–
Brc1ccc2c(c1)C(OC1CN3CCC1CC3)c1ccccc1CS2 (stereo unspecified)	inconclusive: -16.4%	–

Continuation:

Structure (SMILES)	activity change, negative = inhibition	Potency
O=C(O)Cn1nc(-c2ccccc2)oc1=O	inconclusive: 23.6%	–
Fc1cccc(F)c1CN1CCN(c2ccc(Cl)cc2)CC1	inconclusive: 9.53%	–
O=C(Cn1c(=O)oc2cc(S(=O)(=O)NCc3ccccc3)ccc21)N(CCO)Cc1ccccc1	–	inconclusive: 14.1 µM [rising, single point]
COc1ccc(-c2nn(CCC#N)cc2C(=O)Nc2ccccc2Cl)cc1	inconclusive: -0.678%	–
CCCNC(=O)c1c(N)n(CC2CCCO2)c2nc3ccccc3nc12 (stereo unspecified)	inconclusive: 19.3%	–
CCCCCSc1cc(OC)c(CCNC)cc1OC	inactive	–
Fc1ccccc1N1CCN(Cc2c(F)cccc2F)CC1	inactive	–
COc1cccc(C(=O)NC(=S)Nc2ccccc2N2CCCCC2)c1	inconclusive: 4.22%	–
Cc1ccc(C)c(OCC(=O)N2CCCN(C)CC2)c1	–	inconclusive: 6.51 µM [falling, partial curve, poor fit]
COc1ccc(NC(=O)CN2C(=O)C(C)N=C(c3ccccc3F)c3cc(Cl)ccc32)c(OC)c1 (stereo unspecified)	inconclusive: -14.5%	–
O=C(Nc1c(F)cc(F)cc1F)c1cccn(Cc2ccccc2)c1=O	inactive	–
CNC(=O)OCCc1nccn1C	inconclusive: 8.37%	–
CC(=O)N1CCN(c2ccc(NC(=O)c3ccccc3)cc2)CC1	–	inconclusive: 11.2 µM [falling, partial curve]
C=C(COC(=O)CCC(=O)O)CC1CC(O)[C@]2(C)OC3CC4OC5C[C@]6(C)O[C@]7(C)CCC8OC9C[C@]%10(C)OC%11C(C)=CC(=O)OC%11CC%10OC9C[C@@H](C)C8OC7CC6O[C@]5(C)C/C=C\C4OC3CC2O1 (stereo partly specified)	inactive	–
O=C(O)[C@@H]1C[C@H]1[C@@H](NP(=O)(c1ccccc1)c1ccccc1)c1ccccc1	inconclusive: 4.4%	–
Cc1ccc(O)c(CN2CCN(c3ccccc3)CC2)c1	inconclusive: 1.15%	–
COc1ccc(C(CNC(=O)c2ccc3c(c2)CCC3)N(C)C)cc1 (stereo unspecified)	inactive	–
COc1cccc(N2C(=O)NC(=O)C3(Cc4cc(C)ccc4N(C)C3)C2=O)c1 (stereo unspecified)	inconclusive: -187%	–
FC(F)(F)c1ccc2c(c1)N(CCCN1CCN(CCCl)CC1)c1ccccc1S2	inconclusive: 1.08%	–
COC(=O)C1=C(c2ccc(-c3ccccc3)c(F)c2)C[C@@H]2CC[C@H]1N2C(=O)NC1Cc2ccccc2C1	inconclusive: 9.2%	–
O=C(CCC1CCCC1)c1c(O)c2ccccc2oc1=O	–	inconclusive: 4.11 µM [falling, partial curve]
O=C(Nc1ccc(Cl)cc1)O/N=C(\c1ccccc1)c1ccccn1	inconclusive: 5.98%	–
CCCNC(=O)N1C2CCC1CC(O)(c1cccnc1)C2 (stereo unspecified)	inconclusive: -0.379%	–
Cc1cc(C)cc(-n2c(/C=C/c3cccc(F)c3)nc3ccccc3c2=O)c1	inconclusive: 1.22%	–
Cc1nn(-c2ccccc2)c(N)c1-c1ccccc1	–	inconclusive: 35.5 µM [falling, partial curve]
COc1cc(/C=N/NC(=O)Cn2c([N+](=O)[O-])cnc2C)ccc1OC(=O)N(C)C	–	inconclusive: 0.103 µM [rising, full curve, poor fit]

From PubChem BioAssay AID493014 (National Center for Advancing Translational Sciences (NCATS), 2011)
